Laboratory results published in PMC7917558.
Results are given in words; binding and its absence hold for the method and conditions named. Binding seen in cells or lysates may run through a third protein. These calls come from enrichment with a bait or labelling near it, and not all partners need be listed.

Amino acid sequences for entries named in this document (tags omitted). A change or cut given only in a name is not applied to a line headed by its entry.
UniProt Q965S0: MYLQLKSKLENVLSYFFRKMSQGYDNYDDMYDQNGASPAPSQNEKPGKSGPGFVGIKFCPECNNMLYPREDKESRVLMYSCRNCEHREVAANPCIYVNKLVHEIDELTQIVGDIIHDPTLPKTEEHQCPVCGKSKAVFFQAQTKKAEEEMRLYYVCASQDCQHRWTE
UniProt P34703: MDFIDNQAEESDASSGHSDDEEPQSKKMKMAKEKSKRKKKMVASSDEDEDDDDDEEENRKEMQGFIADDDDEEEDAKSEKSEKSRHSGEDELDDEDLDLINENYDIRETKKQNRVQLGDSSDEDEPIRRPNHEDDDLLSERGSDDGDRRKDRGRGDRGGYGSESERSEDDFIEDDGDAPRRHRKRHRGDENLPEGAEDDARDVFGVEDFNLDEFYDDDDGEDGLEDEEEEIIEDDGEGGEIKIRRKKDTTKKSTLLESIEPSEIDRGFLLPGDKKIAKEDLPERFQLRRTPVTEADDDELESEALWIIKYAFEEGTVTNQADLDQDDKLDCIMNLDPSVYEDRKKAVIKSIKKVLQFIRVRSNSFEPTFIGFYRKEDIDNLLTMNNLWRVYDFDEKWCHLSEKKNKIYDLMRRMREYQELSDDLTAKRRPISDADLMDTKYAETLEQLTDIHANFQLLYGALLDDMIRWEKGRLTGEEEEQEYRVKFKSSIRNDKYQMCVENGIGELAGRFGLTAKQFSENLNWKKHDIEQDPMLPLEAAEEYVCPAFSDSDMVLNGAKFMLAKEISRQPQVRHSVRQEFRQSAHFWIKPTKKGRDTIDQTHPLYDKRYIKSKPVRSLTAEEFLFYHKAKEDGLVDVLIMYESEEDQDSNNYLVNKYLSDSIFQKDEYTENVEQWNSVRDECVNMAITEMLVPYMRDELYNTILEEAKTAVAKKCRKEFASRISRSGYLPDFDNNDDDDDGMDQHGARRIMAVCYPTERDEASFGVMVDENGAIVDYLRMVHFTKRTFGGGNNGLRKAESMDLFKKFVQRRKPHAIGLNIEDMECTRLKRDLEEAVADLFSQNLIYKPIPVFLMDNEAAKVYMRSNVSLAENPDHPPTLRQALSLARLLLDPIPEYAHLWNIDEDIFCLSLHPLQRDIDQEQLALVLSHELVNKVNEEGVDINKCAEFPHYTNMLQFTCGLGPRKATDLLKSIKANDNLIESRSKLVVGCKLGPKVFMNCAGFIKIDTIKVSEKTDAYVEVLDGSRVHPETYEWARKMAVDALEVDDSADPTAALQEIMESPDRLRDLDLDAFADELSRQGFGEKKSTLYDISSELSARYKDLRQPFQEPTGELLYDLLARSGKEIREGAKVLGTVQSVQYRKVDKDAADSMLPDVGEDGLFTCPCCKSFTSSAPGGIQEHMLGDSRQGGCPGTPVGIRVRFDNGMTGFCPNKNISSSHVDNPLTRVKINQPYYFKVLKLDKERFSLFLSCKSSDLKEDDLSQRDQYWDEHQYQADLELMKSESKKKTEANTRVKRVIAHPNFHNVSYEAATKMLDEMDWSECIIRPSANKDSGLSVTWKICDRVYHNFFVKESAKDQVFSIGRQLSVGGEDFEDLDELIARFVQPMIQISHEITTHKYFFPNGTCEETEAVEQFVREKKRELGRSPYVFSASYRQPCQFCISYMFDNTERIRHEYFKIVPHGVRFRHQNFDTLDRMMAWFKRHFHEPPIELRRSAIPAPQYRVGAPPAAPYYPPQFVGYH
UniProt O01864: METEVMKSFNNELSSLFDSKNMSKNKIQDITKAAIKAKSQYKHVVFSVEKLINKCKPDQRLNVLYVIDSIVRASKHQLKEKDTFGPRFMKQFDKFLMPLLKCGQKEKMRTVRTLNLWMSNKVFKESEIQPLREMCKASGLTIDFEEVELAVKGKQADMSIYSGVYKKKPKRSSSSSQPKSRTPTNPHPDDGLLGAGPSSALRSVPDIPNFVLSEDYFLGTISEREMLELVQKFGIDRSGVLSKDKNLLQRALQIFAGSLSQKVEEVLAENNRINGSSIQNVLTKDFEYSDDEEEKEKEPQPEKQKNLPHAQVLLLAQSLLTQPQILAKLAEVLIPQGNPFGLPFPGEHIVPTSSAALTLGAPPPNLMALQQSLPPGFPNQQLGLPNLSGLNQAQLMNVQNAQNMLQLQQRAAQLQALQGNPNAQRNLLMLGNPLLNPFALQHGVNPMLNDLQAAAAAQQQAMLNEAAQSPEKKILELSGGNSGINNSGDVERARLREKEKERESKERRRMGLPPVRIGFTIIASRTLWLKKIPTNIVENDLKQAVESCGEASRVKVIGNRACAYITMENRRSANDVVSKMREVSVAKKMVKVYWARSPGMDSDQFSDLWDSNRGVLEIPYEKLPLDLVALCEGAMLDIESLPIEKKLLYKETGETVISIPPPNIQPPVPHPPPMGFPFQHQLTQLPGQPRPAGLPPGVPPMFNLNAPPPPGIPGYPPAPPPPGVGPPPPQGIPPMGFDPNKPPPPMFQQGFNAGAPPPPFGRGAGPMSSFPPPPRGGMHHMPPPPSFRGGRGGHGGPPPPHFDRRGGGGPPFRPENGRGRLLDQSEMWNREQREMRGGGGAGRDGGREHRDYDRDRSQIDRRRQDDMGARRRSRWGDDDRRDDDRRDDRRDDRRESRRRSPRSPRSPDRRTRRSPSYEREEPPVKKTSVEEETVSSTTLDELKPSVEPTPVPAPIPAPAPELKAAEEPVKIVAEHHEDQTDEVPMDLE
UniProt P16356: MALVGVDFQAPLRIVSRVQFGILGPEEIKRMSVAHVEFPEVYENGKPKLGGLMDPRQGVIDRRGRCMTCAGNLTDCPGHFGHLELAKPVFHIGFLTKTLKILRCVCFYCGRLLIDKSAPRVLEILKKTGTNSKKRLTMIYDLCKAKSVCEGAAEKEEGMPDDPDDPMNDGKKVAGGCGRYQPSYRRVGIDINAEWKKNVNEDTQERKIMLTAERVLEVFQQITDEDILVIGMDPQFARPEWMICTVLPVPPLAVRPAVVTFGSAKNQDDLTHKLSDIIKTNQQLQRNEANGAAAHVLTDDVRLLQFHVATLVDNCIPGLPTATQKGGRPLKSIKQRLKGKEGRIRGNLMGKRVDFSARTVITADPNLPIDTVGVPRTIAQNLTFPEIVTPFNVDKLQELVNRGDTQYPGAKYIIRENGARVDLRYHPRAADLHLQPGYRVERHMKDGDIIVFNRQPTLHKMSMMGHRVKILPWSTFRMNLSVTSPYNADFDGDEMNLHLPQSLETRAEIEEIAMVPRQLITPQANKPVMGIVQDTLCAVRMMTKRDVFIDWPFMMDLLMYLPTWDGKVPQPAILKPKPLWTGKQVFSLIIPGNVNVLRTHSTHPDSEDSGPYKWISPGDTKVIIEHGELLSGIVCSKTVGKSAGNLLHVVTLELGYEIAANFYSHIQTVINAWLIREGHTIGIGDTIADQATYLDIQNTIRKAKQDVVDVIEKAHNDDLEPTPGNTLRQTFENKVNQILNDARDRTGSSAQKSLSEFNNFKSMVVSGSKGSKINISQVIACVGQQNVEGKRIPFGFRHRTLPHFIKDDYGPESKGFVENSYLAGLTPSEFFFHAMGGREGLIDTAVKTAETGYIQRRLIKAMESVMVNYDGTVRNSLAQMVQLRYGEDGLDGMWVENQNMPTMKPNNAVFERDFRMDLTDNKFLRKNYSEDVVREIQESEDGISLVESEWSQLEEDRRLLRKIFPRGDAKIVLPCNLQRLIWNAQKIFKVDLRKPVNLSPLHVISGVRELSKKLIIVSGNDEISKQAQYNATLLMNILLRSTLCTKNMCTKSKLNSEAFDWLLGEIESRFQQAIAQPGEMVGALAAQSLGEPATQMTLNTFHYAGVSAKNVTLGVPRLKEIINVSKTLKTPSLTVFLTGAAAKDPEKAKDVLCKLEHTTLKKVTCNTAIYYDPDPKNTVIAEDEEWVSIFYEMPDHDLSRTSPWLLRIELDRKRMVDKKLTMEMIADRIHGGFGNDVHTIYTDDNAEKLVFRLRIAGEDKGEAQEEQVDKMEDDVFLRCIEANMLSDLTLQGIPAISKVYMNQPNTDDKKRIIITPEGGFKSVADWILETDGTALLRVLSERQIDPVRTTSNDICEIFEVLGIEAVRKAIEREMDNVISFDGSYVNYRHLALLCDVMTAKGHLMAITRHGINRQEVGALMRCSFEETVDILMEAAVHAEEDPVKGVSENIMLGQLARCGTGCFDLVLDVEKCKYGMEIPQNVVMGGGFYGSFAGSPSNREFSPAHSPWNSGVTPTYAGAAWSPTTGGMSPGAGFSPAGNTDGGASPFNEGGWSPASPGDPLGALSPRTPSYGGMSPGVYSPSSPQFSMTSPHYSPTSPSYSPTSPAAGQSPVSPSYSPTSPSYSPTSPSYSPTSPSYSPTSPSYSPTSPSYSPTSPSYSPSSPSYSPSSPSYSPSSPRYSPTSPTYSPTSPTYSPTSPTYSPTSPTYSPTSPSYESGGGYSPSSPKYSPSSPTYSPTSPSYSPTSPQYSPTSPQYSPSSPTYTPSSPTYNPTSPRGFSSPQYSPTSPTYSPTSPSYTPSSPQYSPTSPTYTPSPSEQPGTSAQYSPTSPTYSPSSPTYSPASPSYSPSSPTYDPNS
UniProt Q9N5K2: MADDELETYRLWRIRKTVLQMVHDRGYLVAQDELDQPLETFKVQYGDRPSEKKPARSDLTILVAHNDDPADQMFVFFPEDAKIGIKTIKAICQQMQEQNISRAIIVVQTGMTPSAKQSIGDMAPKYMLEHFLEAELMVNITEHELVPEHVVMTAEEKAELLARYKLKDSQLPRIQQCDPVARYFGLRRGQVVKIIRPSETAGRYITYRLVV
UniProt Q21338: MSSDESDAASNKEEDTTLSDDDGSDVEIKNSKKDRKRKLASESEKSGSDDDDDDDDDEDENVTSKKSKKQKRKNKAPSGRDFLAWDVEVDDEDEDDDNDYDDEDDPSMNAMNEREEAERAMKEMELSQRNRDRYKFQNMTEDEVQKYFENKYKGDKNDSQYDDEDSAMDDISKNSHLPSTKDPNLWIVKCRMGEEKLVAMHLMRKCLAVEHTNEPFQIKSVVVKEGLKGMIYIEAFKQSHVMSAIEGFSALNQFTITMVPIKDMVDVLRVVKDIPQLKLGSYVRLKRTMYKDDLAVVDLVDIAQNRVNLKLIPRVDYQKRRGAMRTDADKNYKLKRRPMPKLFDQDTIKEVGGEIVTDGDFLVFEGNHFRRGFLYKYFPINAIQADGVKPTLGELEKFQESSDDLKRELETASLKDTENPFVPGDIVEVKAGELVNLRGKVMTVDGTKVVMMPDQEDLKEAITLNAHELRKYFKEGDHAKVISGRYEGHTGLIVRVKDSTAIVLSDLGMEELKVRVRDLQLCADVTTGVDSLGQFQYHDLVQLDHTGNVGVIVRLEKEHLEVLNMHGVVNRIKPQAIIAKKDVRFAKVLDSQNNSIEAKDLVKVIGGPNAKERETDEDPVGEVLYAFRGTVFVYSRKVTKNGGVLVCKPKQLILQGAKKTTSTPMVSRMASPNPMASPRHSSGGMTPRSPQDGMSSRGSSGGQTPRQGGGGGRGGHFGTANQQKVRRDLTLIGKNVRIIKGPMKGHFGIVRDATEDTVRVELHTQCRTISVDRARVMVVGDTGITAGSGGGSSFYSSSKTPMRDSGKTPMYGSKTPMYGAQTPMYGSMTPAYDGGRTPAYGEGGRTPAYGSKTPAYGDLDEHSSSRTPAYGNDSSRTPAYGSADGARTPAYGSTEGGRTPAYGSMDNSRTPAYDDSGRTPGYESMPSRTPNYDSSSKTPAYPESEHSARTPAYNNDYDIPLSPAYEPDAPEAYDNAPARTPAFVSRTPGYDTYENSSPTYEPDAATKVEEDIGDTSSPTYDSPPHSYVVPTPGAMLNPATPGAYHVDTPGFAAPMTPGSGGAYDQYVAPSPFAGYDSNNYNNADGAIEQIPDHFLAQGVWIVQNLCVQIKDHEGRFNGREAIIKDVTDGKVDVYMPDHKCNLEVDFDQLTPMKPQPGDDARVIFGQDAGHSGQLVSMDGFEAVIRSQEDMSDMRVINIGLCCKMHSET

B1: CTR‐9 (protein, UniProt Q03560 1-1150)
chain: MDESIDDVQETRTIAIPLKDSHEDEVIEINCSELPDGEEVLQILEAEEAKLSYWIEVALEYYRQDRVDLFMMILESAGSRAGLEYEGVKQDQMRALDILAAYWMTQGYREKAKDKKSDFFSKATVLFNTADKIAMYEWSHLTVRAWFYLFERDKSTNKYELADQQFNYVVKTNPKNVLPLIGKAVIAFNKKDYKTAIYYFRKAIRQCRHTIADLRVGIGHCFAKMGMMDKAKTAFERAMEIEPYNVSAMCGLGIILLNTYDHDSLKHAVSLFGRSYNLQTDHPVALIHLANHFFFKKEIERAWTLAWHAATYNDCDSIKAEAFYQMGRCRHAQGQFDGAYKYYYQARQANNGEHTLAHYGLGQMYIHRNEIEEAIKCFDTVHKRLPNNTDTMKILGSLYAHVQLNDPAQTAEARQKGRDVLGKYLAVENDDYEACIDLAQLLEATDPKRSLELYENAIDLLVTNESIQPQPEMLNNVGALYMSMKQYEKAEHHFKRAKERLEEQLNTDEGSLLLERRSAPEKSHLLTIRYNLALCLEHLCRTVEAEQMYKDIVKECPGYIDGYLRLGCITRDRHQVYESSLWLKQGVQFDQASPIVWTLIGNLHFAKNEWMPAQKKFEFILSKIFNNKIPDPYSLVALGNVWFEQLLNPSRKKEDEKKYIDRALQMYQKALKLQPKNMYAANGIGCVLAYKRNWNDARDVFSQVRESTSEFYDVWLNIAHVCMEREQWMAAVQMYSSAMKKFRKENDSTLQHYLAKAYYRANMLNEAKEALECAMLDQLDNTQLKFNYAIVLKKSAKEVLRGHKMTSEQVTAAIDDLKFADKIFQYISKNDDRQSSHTGMRISRTICAEEAKNCKDLLTQAKHKLAAAQTQDEEERRLMEKQEKEKIALQNKMIEEARAKEEAEKQKLEDMKNLRLSFIEMTKDVLRLPEIVEEKRRGGGGRKRRNDDGDEFVNDSSDAGNYDGEEGGEDGERRERRKKDKAAKKASRKKRERRDSGGPDSNRRDEKKRKRKEERDRKLQEKLSAKQSAKIKSRAFLSSSESSDDDKPKPAADSSDDEVDPRPPVDEFDSPTRTDSDSDRETTTKKKKKKAVVDSDEGSVSGSGSGSDNDDKPIIGGSDDDDDDKPAGGNSRDSDGSDAPKKKVIESDSD

These molecules were tested against RPB‐9::OLLAS (C. elegans) (UniProt Q965S0) (assay: affinity purification with mass spectrometry; RPB-9::ollas precipitated from lysate of young adult C. elegans with anti-ollas antibody and Protein A/G magnetic beads, 12 h at 4°C; 25 mM Tris-HCl pH 7.5, 150 mM NaCl, 1.5 mM MgCl2, 0.1% Triton X-100; untagged N2 as control; 4 technical replicates; label-free quantification, Welch's t-test).

binding, binds:
EMB‐5 (from UniProt P34703 1-1521)
NRD‐1 (from UniProt O01864)
RPB‐1/AMA‐1 (from UniProt P16356 1-1856)
RPB‐5 (from UniProt Q9N5K2 1-211)
SPT‐5 (from UniProt Q21338 1-1208)
B1
